Publication PMC4444337 (PLoS ONE, 2015)

What was measured:
[1] = highest dose group, at necropsy
Description: (§1) In Study 1 all animals were followed until day 13 post-inoculation, when the necropsy took place.
(§2) In Study 2 all animals were followed until day 15 post-inoculation, when the necropsy took place.
(§3) Bronchoalveolar lavage fluid (BALF), nasal and throat swabs and blood samples were collected every 2 days from day 1 postinfection up to day 11 (study 1) and day 13 (study 2). For BALF collection, monkeys were sedated with […] (0.02–0.05 mg/kg) administered intramuscularly to allow passage of sterile laryngoscope and endotracheal tube. BAL was performed by laryngoscopy by inserting a shortened Kendall Sovereign feeding tube and urethral catheter through the endotracheal tube and approximately 10 mL of phosphate buffer saline (10 mL, pH 7.4) was instilled and gently suctioned back into the syringe promptly to recover approximately 5–7 mL of BAL in the syringe. Later, the adjustment of the dilution was done based on urea and protein concentration. White blood cell (WBC) count from BALF was analyzed using automated blood analysis instrumentation (Antech Diagnostics, Lake Success, NY, USA).

[2] = system: RSV subgroup A strain A2; assay: RSV viral load (qRT-PCR, RSV-A F gene) in BALF/throat after RSV A2 challenge; format: in vivo, African green monkeys
Description: as §1, §2, §3
All animals were challenged with 1.5mL of 1 × 10^4 pfu/mL RSV subgroup A—strain A2 virus intranasally (i.n.) and intratracheally (i.t.) on day 0. […] The virus was thawed at room temperature and immediately put on ice.
For each inoculation, 1.5 mL were aspirated with a 3 mL syringe. After being anesthetized with 10 mg/mL ketamine, the animals were placed in dorsal recumbency. 0.25 mL of the virus was instilled drop-by-drop into each nostril and allowed to absorb for 20 sec. […]
RSV was quantified using one-Step RT-PCR Master Mix reagents (Applied Bio systems, USA). […]
The IEC-B assay was run as control. The viral load (VL) was expressed as RSV A-F copy numbers and transformed in Δ log10 values. […] The antiviral effect was calculated as differences between peak VL and area under the curve (AUC) VL based on Δ log10 RSV from different groups.

[3] = system: IFNγ; assay: IFNγ in BALF (Luminex) after RSV challenge; format: in vivo, African green monkeys
Description: (§4) The following monkey-specific cytokines were determined in BALF using a Luminex bead analysis according to the manufacturer's protocol: Interleukins (IL)-1b, IL-2, IL-4, IL-5, IL-6, IL-8, IL-10, Interferons (IFN)γ, IFNα, Tumor necrosis factor (TNF)α, Regulated on Activation, Normal T Cell Expressed and Secreted (RANTES), and Macrophage inflammatory protein (MIP)-1α. The non-human primate Luminex beads for IFNγ, IFNα, and IL-10 were provided by Texas Biomedical Research Institute (Texas, USA). The beads for the remaining cytokines were obtained from Millipore (Billerica, MA, USA). The samples for cytokine determination were run in duplicates. Human cytokine standards were used for standard curves and for determination of the lower limit of detection for individual cytokines. The results were read using a Luminex 100 System (Texas, USA).

[4] = system: IL6; assay: IL6 in BALF (Luminex) after RSV challenge; format: in vivo, African green monkeys
Description: as §4

[5] = system: MIP1α; assay: MIP1α in BALF (Luminex) after RSV challenge; format: in vivo, African green monkeys
Description: as §4

[6] = target: RSV; conditions: plasma protein binding correction factor: 100
[7] = cited from earlier work
[8] = cited from earlier work; remark: listed apart in the source

With Cc1ccc(CCCO)c(NCc2ccc3nc(NCCCN4CCOCC4)n(Cc4nc(C)ccc4O)c3c2)c1 [TMC353121] the “Plasma concentration after cessation of the infusion” value [1] was “still detectable at the time of necropsy”, the “Reduction of VL AUC” value ([2]; Study 1, Px50, BALF) was 20% and the “Reduction of VL AUC” value ([2]; Study 1, Tx50, BALF) was 5%. The “Reduction in peak viral load in BALF compared to the remaining controls” value ([2]; one control (V1) AGM accidentally infused with the drug for 24 hours, two days after infection) was 1.5 log10, the “IFNγ AUC Median in BALF” value ([3]; Study 1, Px50, vehicle Vh1 5936) was 5678 and the “IFNγ AUC Median in BALF” value ([3]; Study 1, Tx50, vehicle Vh1 5936) was 2718. The “IFNγ AUC Median in BALF” value ([3]; Study 2, Px5, vehicle Vh2 8120) was 1498, the “IFNγ AUC Median in BALF” value ([3]; Study 2, Px500, vehicle Vh2 8120) was 46 and the “IL6 AUC Median in BALF” value ([4]; Study 1, Px50, vehicle Vh1 540) was 527. The “IL6 AUC Median in BALF” value ([4]; Study 1, Tx50, vehicle Vh1 540) was 391, the “IL6 AUC Median in BALF” value ([4]; Study 2, Px5, vehicle Vh2 1174) was 537.5 and the “IL6 AUC Median in BALF” value ([4]; Study 2, Px500, vehicle Vh2 1174) was 0. For the same molecule, the “MIP1α AUC Median in BALF” value ([5]; Study 1, Px50, vehicle Vh1 394) was 201, the “MIP1α AUC Median in BALF” value ([5]; Study 1, Tx50, vehicle Vh1 394) was 106 and the “MIP1α AUC Median in BALF” value ([5]; Study 2, Px5, vehicle Vh2 718.5) was 142. The “MIP1α AUC Median in BALF” value ([5]; Study 2, Px500, vehicle Vh2 718.5) was 0, the “EC50c (EC50 corrected for plasma protein binding)” value [6] was “The concentration of drug in different compartments was expressed as fold EC50c. EC50c = 7 ng/mL x plasma protein binding correction factor: 100. Urea dilution factor of 9.7 was applied for drug concentration in BALF. LOD = limit of detection. LODTMC353121 = 0.19 ng/mL” and the Cytotoxicity [7] was “low cytotoxicity”. The “lung t1/2” value [8] was 25 h.
